The other results are listed elsewhere or left out.
These targets were tested with COc1ccc(Cn2ccc3ccc(C(=O)NO)cc32)cc1 (assay: dose-dependent thermal stabilisation call (2D-TPP, DLPTP, 10% FDR) (binary (1 = stabilised)); higher = stabilised by the compound). Settings: system: HL-60 intact cells; concentration range 0.04-10 µM.

Protein sequences, listed by entry. Tags and fused reporters are not part of them. Lines headed by an entry give the natural chain unless they say otherwise; changes in a name come on top.
UniProt O60701: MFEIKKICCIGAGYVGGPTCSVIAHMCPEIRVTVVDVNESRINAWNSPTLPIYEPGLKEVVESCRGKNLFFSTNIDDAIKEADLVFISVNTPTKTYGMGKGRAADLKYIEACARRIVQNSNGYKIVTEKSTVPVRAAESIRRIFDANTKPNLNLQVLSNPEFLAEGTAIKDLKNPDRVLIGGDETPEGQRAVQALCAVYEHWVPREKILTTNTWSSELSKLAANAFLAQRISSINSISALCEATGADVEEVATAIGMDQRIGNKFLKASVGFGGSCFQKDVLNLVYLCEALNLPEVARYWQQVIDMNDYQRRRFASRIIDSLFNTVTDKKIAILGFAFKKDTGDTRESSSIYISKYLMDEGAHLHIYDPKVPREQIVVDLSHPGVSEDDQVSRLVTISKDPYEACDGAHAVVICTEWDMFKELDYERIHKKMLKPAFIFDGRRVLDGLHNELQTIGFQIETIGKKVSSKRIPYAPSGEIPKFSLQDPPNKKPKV
UniProt Q8NBM4: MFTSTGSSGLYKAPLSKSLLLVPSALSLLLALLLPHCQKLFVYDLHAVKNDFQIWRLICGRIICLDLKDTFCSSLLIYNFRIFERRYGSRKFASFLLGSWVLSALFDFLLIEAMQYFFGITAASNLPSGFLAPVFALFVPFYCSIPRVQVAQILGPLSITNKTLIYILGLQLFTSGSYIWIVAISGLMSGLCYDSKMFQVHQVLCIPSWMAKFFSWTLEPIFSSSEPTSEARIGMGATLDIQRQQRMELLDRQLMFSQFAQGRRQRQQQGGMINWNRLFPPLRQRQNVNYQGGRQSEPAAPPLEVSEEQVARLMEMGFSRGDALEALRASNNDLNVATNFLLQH
UniProt Q9NZ43: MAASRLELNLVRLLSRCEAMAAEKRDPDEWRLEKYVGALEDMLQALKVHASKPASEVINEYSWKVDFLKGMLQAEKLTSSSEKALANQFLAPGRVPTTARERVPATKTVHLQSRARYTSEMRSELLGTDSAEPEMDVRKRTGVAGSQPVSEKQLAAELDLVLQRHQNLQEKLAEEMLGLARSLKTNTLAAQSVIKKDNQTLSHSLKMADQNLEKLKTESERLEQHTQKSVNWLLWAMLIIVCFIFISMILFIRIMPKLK
UniProt Q15714: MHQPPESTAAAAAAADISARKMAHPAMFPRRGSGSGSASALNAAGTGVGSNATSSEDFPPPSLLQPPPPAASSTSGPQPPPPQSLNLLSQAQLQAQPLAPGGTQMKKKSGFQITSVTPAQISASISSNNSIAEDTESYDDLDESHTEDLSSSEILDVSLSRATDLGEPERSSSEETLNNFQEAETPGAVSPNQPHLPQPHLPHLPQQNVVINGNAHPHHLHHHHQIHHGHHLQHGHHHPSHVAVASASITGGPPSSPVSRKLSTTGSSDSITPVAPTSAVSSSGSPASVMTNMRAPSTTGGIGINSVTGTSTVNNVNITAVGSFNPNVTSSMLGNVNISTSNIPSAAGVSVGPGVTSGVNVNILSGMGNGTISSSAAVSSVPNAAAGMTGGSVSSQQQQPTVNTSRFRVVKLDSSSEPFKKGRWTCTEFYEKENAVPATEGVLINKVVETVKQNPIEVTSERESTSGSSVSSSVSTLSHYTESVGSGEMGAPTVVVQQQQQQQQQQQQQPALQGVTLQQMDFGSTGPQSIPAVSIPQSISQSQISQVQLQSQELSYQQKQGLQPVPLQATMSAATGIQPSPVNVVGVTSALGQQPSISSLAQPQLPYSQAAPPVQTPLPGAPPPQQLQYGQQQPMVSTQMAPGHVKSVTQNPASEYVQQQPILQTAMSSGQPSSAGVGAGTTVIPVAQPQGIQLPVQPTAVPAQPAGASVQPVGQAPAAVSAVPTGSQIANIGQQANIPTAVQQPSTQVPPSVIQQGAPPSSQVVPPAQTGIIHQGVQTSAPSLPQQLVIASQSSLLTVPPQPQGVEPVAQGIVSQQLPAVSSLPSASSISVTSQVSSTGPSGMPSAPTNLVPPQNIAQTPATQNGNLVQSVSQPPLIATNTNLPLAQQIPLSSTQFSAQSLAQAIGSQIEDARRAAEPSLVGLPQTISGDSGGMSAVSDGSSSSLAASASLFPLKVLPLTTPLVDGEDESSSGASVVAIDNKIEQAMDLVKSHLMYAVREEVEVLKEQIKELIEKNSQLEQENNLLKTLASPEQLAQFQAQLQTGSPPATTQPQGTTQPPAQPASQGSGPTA
UniProt P48553, whole entry: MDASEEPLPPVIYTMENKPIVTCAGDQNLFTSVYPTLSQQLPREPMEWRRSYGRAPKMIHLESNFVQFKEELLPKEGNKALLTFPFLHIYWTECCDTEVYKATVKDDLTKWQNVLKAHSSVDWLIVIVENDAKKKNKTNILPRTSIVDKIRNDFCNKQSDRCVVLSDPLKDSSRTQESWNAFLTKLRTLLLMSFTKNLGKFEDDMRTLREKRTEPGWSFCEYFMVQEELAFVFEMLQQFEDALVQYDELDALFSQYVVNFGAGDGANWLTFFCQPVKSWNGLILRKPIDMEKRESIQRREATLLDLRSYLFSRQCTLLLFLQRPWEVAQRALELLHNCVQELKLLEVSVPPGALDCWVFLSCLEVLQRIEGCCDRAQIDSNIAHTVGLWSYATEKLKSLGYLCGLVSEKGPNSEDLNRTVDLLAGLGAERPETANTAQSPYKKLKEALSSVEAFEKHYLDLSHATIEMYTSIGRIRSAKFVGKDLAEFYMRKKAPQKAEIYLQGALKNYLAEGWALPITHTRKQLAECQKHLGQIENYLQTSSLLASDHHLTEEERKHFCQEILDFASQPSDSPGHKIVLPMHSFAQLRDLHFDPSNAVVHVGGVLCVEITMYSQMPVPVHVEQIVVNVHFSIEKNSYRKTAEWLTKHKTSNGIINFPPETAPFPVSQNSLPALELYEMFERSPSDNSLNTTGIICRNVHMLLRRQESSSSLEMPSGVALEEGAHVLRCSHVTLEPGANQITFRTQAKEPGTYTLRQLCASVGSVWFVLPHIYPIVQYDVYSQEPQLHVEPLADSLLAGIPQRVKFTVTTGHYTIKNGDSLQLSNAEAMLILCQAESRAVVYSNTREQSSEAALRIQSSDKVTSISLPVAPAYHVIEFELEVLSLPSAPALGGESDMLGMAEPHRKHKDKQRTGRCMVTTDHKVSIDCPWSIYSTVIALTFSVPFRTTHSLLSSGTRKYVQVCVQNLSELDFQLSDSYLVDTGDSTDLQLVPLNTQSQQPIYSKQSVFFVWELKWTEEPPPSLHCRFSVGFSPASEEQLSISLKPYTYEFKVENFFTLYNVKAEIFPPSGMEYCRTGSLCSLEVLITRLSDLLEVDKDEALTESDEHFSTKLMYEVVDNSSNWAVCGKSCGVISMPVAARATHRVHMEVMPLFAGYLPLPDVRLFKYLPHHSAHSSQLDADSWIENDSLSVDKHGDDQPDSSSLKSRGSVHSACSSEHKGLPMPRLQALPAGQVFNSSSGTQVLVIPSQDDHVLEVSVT
UniProt O95155, whole entry: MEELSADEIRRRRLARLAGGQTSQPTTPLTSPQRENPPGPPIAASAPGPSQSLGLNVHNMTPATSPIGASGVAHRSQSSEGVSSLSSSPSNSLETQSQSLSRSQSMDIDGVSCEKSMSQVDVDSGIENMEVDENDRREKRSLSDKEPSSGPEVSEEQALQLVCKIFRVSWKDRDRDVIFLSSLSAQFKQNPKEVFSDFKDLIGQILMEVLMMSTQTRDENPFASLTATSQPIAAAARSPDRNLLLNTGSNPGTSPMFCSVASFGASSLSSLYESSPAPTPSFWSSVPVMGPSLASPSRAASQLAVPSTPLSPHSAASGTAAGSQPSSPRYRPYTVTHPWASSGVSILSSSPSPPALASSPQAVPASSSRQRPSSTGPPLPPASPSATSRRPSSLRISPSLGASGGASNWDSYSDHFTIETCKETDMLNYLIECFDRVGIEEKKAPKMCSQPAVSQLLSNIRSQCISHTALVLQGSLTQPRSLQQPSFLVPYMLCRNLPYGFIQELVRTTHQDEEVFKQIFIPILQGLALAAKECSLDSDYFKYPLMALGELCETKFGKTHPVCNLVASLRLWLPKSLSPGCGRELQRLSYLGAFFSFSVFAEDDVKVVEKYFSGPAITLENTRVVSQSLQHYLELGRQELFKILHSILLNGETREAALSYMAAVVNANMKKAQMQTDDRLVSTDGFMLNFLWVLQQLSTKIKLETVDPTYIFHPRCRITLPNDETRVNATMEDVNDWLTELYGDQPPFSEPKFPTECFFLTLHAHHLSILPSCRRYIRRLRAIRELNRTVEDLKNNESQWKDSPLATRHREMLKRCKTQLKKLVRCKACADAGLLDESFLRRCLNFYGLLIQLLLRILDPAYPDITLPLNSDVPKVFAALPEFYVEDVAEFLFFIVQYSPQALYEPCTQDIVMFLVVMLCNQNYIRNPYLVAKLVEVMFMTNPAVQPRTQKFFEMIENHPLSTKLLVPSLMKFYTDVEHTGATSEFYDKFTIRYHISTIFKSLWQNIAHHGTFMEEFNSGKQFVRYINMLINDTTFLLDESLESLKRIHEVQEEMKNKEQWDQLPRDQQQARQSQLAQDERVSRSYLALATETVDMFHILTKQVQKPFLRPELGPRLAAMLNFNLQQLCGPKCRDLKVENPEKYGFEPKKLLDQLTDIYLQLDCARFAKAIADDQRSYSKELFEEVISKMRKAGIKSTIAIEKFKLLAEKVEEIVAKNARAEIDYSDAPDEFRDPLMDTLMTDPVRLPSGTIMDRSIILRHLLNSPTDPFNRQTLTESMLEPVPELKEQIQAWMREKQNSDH
UniProt P49815: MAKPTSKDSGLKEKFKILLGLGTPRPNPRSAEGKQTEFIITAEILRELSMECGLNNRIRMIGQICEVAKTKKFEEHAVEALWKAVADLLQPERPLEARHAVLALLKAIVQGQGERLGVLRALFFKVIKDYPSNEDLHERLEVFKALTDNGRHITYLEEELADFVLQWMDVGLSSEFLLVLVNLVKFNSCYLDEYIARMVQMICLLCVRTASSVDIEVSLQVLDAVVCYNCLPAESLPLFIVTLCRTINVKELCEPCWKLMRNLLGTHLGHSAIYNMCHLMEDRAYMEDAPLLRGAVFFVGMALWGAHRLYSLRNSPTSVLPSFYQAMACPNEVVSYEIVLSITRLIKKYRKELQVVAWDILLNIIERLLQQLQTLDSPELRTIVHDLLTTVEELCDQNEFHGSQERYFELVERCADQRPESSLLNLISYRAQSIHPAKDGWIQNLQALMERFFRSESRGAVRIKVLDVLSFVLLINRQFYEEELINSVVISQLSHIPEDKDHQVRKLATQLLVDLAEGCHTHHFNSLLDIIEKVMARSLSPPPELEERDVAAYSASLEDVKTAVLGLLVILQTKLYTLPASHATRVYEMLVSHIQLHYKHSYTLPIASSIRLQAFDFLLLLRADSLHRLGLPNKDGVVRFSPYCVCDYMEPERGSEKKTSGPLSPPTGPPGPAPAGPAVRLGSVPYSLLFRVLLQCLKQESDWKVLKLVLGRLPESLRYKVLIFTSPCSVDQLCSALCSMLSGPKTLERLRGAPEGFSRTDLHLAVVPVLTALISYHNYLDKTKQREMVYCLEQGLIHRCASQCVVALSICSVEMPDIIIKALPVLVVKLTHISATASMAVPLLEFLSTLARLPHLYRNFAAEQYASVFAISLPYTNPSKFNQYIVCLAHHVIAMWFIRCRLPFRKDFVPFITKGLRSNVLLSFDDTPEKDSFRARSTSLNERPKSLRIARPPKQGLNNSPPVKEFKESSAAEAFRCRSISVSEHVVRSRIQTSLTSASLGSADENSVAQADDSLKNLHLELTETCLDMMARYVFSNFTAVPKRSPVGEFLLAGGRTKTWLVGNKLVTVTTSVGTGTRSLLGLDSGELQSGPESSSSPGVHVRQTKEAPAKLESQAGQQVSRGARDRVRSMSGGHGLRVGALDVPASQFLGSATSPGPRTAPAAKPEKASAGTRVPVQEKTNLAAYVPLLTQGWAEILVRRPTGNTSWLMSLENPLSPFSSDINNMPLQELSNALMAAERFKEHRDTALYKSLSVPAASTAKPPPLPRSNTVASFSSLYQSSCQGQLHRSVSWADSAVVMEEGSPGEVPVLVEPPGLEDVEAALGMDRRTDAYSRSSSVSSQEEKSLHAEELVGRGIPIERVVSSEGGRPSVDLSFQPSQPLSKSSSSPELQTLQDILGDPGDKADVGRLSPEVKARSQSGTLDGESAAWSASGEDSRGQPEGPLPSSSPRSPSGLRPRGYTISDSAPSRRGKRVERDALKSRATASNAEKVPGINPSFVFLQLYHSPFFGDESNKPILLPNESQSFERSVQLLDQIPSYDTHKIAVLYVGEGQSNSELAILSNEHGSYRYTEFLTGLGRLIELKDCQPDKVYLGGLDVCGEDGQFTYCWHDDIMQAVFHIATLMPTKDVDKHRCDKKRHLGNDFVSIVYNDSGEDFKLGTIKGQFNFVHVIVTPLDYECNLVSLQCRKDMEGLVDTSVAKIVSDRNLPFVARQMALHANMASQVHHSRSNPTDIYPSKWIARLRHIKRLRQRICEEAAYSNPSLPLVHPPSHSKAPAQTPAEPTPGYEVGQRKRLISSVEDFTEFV

| Target | dose-dependent thermal stabilisation call |
| --- | --- |
| TRIM72 (UniProt Q6ZMU5) | inactive: 0 |
| USP22 (UniProt Q9UPT9) | inactive: 0 |
| USP14 (UniProt P54578) | inactive: 0 |
| TTC17 (UniProt Q96AE7) | inactive: 0 |
| UGDH (UniProt O60701) | inactive: 0 |
| UBAC2 (UniProt Q8NBM4) | inactive: 0 |
| USP39 (UniProt Q53GS9) | inactive: 0 |
| TRMT6 (UniProt Q9UJA5) | inactive: 0 |
| USP7 (UniProt Q93009) | inactive: 0 |
| UCHL3 (UniProt P15374) | inactive: 0 |
| UBE2K (UniProt P61086) | inactive: 0 |
| UBA5 (UniProt Q9GZZ9) | inactive: 0 |
| TXNDC10 (UniProt Q96JJ7) | inactive: 0 |
| USE1 (UniProt Q9NZ43) | inactive: 0 |
| USP32 (UniProt Q8NFA0) | inactive: 0 |
| UGCGL1 (UniProt Q9NYU2) | inactive: 0 |
| TXNDC13 (UniProt Q9H1E5) | inactive: 0 |
| TUBA1A (UniProt Q71U36) | inactive: 0 |
| TXNDC1 (UniProt Q9H3N1) | inactive: 0 |

| Target | dose-dependent thermal stabilisation call |
| --- | --- |
| TUBGCP5 (UniProt Q96RT8) | inactive: 0 |
| TSC22D1 (UniProt Q15714) | inactive: 0 |
| UBXN6 (UniProt Q9BZV1) | inactive: 0 |
| UGP2 (UniProt Q16851) | inactive: 0 |
| UBE2F (UniProt Q969M7) | inactive: 0 |
| TRIOBP (UniProt Q9H2D6) | inactive: 0 |
| TRABD (UniProt Q9H4I3) | inactive: 0 |
| TXNDC4 (UniProt Q9BS26) | inactive: 0 |
| UBTF (UniProt P17480) | inactive: 0 |
| UCKL1 (UniProt Q9NWZ5) | inactive: 0 |
| UBASH3B (UniProt Q8TF42) | inactive: 0 |
| UBA6 | inactive: 0 |
| TRAPPC10 (UniProt P48553) | inactive: 0 |
| TTN (UniProt Q8WZ42) | inactive: 0 |
| TREX2 (UniProt Q9BQ50) | inactive: 0 |
| UBE4B (UniProt O95155) | inactive: 0 |
| TUBA4A (UniProt P68366) | inactive: 0 |
| TSC2 (UniProt P49815) | inactive: 0 |

Rewritten as tab-separated lines: part of the list above.
Target	dose-dependent thermal stabilisation call
UBA6	inactive: 0
TRAPPC10 (UniProt P48553)	inactive: 0
